Values quoted from earlier work in US9428497B2, “Precursor compounds for the radiosynthesis of [18F] norchloro-fluorohomoepibatidine” (priority 2011, dated 2016).
At least one structure is not confirmed: it was looked up by name or label, or the drawing left a doubt.

Test system: nicotinic acetylcholine receptors
Settings: PET, piglets; compared with 2-[18F]F-A-85380

Fc1ccc(C2CC3CCCC2N3)cn1 (single isomer, unassigned; (-)) [(−)-[^18F]NCFHEB, (−)-[^18F]norchloro-fluoro-homoepibatidine]
binding kinetics in the brain relative to 2-[18F]F-A-85380: significantly much faster
